The source of these data is PMC7795354 (Molecules, 2020).

Where no end group is shown, it is not given here. The star is where a group is joined. DOTA = O=C(O)CN1CCN(CC(=O)O)CCN(CC(=O)*)CCN(CC(=O)O)CC1

The first data set can be described thus: general procedure: Fmoc solid-phase peptide synthesis; 2-chlorotrityl chloride resin; DIPCI/HOBt. Particulars: late stage modification step.
^natGa-DOTA-aaa-IPLPPPRRPFFK: the step yield was found to be 85%.
^natGa-DOTA-EG4-IPLPPPRRPFFK: the step yield came out at 81%.
Same read-out and setting: the result for ^natGa-DOTA-ββ-IPLPPPRRPFFK reads 56%.
For the substance ^natGa-DOTA-IPLPPPRRPFFK, the step yield stood at 75%.
For ^natGa-DOTA-ββββ-IPLPPPRRPFFK, the step yield is reported as 58%.
In turn, ^natGa-DOTA-EG2-IPLPPPRRPFFK gave a step yield of 82%.
Substance ^natGa-DOTA-aaaaa-IPLPPPRRPFFK gave a step yield of 80%.

The same data set, now with this note: whole synthesis.
As to {DOTA}-IPLPPPRRPFFK, the isolated yield turned out to be 66.0%.
On to DOTA-EG2-IPLPPPRRPFFK, for which the isolated yield came to 71%.
As for DOTA-aaaaa-IPLPPPRRPFFK, the isolated yield amounted to 79%.
In the case of DOTA-aaa-IPLPPPRRPFFK, the isolated yield was determined as 75%.
With DOTA-ββ-IPLPPPRRPFFK, the isolated yield is on record as 78%.
On the same count and under the same terms, the result for DOTA-ββββ-IPLPPPRRPFFK reads 58%.
On the same count and under the same terms, with DOTA-EG4-IPLPPPRRPFFK the figure was 48%.
